From PubChem BioAssay AID1508600 (Functional Genomics Laboratory (NCATS/FGL), 2020)
In all, about 53,000 sequences went through this assay and about 3,700 (7%) were called active.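 How the source made its calls: active means gene knockdowns whose robust z-score for IL-1 alpha signal is at least 2 or at most -2, so actives lie on both sides; inactive means the rest.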 The list shows a part of the results.

Assay: Components of the Cytosolic LPS Sensing Pathway: Gene Identification via Genome-wide siRNA Screen;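 further: robust z of the log signal after scaling to non-targeting control siRNA wells of the plate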
Conditions: RAW264.7 macrophages, IL-1a HTRF, actives lie on both sides, screened at 100 nM (by protocol), cells primed 5 h with Pam3CSK4 first
Method in brief: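 Cells (RAW264.7, 1×10^4 per well) were transfected with siRNA at 100 nM and cultured 48h at 37 degrees C. Pam3CSK4 was added for 5 hours; LipidA transfection followed for 24 hour. IL-1a was then measured by HTRF.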

| Sequence | z-score |
| --- | --- |
| CCUUAUCAGCCAGGGUUGGTT against Asb9 | inactive: 1.3 |
| CCUGGGUUCUUUACCAUAATT against Naa35 | inactive: -0.0128 |
| GGGCUAAUGAGAUAGGUUUTT against Slc19a2 | active: 2.18 |
| CCUUUCUUGUGUUUACAGGTT against P2ry6 | inactive: -0.347 |
| GGUCAGUCAGAACAUGCUATT against Xrcc2 | inactive: 1.4 |
| GGAAAUGGUGAAUAUGCGUTT against Rnf146 | inactive: -0.265 |
| GGAUUUUUGAUCUACCUAUTT against Slc16a7 | inactive: -0.472 |
| GGCUCAGGUGCCAAUUGCATT against Mfng | inactive: 1.25 |
| GGUUCCUUUAACUUUGGUUTT against A730089K16Rik | active: 2.18 |
| GGAAGACGGCAAUCAACCATT against Cyp2c37 | inactive: -0.368 |
| CCAGCAAUAGUUCAGCAGATT against Ccdc82 | active: -2.72 |
| GCCUUACACUGUAGUCAGGTT against C130023O10Rik | inactive: 0.796 |
| GGAGAUGAGGAAGCUCUUCTT against Usp4 | inactive: -0.747 |
| GGAUUGUGUUAGAACUUACTT against Blk | inactive: -1.1 |
| CCCUAAUAGUGAAUACAUGTT against Icos | inactive: 0.215 |
| CCUACGGACUCAGGAAAUATT against Tle6 | inactive: -1.01 |
| GGAACCUCUCCUGAUCACCTT against Ces4a | inactive: 1.07 |
| CGAACACUUUAACAUUUUGTT against BC053393 | inactive: 0.239 |
| GCAAAUUAUUGAGAGCCUGTT against Prl2a1 | inactive: 1.01 |
| GCUUGCCUGACCUGAAACATT against Apool | active: -2.38 |
| GGUUGACUUUGUAACUCAATT against Agk | inactive: -0.283 |
| GGAAGGAAGCUAAAAAACGTT against Gnl3 | active: 2.24 |
| CGUGGUCCUCGAUAACAAATT against Trak1 | inactive: 1.03 |
| CCUGCCUAUUGUUUCAGAATT against Ifna11 | inactive: 0.239 |
| GCUCAAGUGGGCCUUUAGCTT against Hpcal1 | inactive: 0.2 |
| GGAUGAACAAAAUAAGACUTT against Gm5087 | inactive: 0.643 |
| GGAGAAUCAGUAUUCCAUATT against Tmem44 | inactive: 0.748 |
| CGACAACCAAAUCAUCACCTT against Gnb2 | inactive: -0.341 |
| GCUAUAAGGCUUAAUAGGGTT against Dleu7 | inactive: 1.97 |
| GGCCCAACACCAUGAACAATT against Ogfod2 | inactive: -0.978 |

Taken from above:
GCUUGCCUGACCUGAAACATT against Apool | z-score: active: -2.38
GGUUGACUUUGUAACUCAATT against Agk | z-score: inactive: -0.283
